Experimental findings from patent US20060275295A1 (published 2006) are described below.

Construct, isoform or probe ends are uncertain for at least one entry. Where a protein sequence is shown, tags need not be part of it.

The target of this data set is T1, THAP domain of human THAP1 (THAP-His6) (Homo sapiens) (UniProt Q9NVV9).
T1 sequence: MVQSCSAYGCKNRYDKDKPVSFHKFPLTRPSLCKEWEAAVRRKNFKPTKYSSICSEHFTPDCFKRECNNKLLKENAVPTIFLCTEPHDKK
Nature of the data set: SELEX. Conditions: 12 rounds; purified recombinant protein; protein details: C-terminal His6 (pET-21c); variant of SELEX random pool 62-mer.

Turning to “TTGCCAGTAGTTAGGTGTGGGCGA (double strand) [ER-11 selected 5]”, the selection result is “selected”.

On to “TTGCCAGTACCTACTAAGGGCAA (double strand) [ER-11 selected 7]”, for which the selection result is recorded as “selected”.

For “CTGCCAGTACATAGTGTGGGCAA (double strand) [ER-11 selected 2]”, the selection result was “selected”.

Turning to “GGGCATGTACTGGCAA (double strand) [DR-5 selected 6]”, the selection result is given as “selected”.

Consider “GGGCAACACTACTGGCAA (double strand) [DR-5 selected 8]”, for which the selection result is recorded as “selected”.

Regarding “GGGCAAACTGTGGGCAT (double strand) [DR-5 selected 2]”, the selection result was “selected”.

“TTGCCAGTAGTTAGTGTGGGCAG (double strand) [ER-11 selected 8]”: the selection result was “selected”.

“CTGCCAGTAGTAAGTGTGGGCAG (double strand) [ER-11 selected 9]”: the selection result was “selected”.

In the case of “GGGCAAAGTACTGGCAA (double strand) [DR-5 selected 9]”, the selection result is “selected”.

Consider “GGGCCAGTTCGTTGCAA (double strand) [DR-5 selected 5]”, for which the selection result is “selected”.

Take “TTGCCAGTAGTTAGTGTGGGCAA (double strand) [ER-11 selected 6]”: the selection result is on record as “selected”.

Turning to “GGGCAAACTACTGGCAA (double strand) [DR-5 selected 4]”, the selection result is listed as “selected”.

“CTGCCAGTAGATACTGTGGGCAA (double strand) [ER-11 selected 4]”: the selection result is on record as “selected”.

As for “GGGCAACTGTGGGCAA (double strand) [DR-5 selected 7]”, the selection result is “selected”.
